Residue numbers refer to the chain shown, from its start. Names may count otherwise. Results are given in words; binding and its absence hold for the method and conditions named. Binding seen in cells or lysates may run through a third protein. Some entries that bind do so weakly or less than the wild type. Values belong to the binder of their own block, whether it stands above or below them.
Experiments:
Test in all cases: co-IP; HEK293T cells co-transfected with C-terminally HA- and Myc-tagged copies of the same EpCAM variant; lysate in 50 mM Tris/HCl pH 8.0, 1% NP-40, 500 mM NaCl; anti-HA antibody with Protein A/G agarose, 16 h at 4°C; anti-Myc western blot, also of 1:3 serial dilutions of the eluate
[1] = biological target: T1, human EpCAM, wildtype (human), P16422; details: remark: other sources report otherwise
T1 chain: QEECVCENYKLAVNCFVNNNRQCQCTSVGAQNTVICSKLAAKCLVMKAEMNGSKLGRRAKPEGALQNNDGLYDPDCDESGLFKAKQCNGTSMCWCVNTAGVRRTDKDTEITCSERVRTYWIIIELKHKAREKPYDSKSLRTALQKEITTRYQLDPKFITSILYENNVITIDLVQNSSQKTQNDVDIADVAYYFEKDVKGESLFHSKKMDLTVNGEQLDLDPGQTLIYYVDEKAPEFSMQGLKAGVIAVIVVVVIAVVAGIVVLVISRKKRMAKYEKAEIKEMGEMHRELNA

[2] = biological target: human EpCAM R80A (human) (UniProt P16422)
[3] = biological target: human EpCAM R80Q (human) (UniProt P16422)
[4] = biological target: human EpCAM R80A/R81A (human) (UniProt P16422)
[5] = biological target: human EpCAM R80L (human) (UniProt P16422)

B1: human EpCAM, wildtype, P16422 24-314 (protein)
chain: T1 chain
binding [1]: binds

B2: human EpCAM R80A (protein, UniProt P16422 24-314)
chain: T1 chain with R57A
binding [2]: binds

B5: human EpCAM R80L (protein, UniProt P16422 24-314)
chain: T1 chain with R57L
binding [5]: binds

Continued, values first:

binding [3]: binds
B3: human EpCAM R80Q (protein, UniProt P16422 24-314)
chain: T1 chain with R57Q

binding [4]: binds
B4: human EpCAM R80A/R81A (protein, UniProt P16422 24-314)
chain: T1 chain with R57A, R58A
